According to PMC11499264, “RNA m5C oxidation by TET2 regulates chromatin state and leukaemogenesis”:

Test system: MBD6 MBD domain-MBP-His + ASXL1 ASXH domain
Assay: EMSA
Conditions: ASXL1 ASXH present, MBD6-m5C binding not affected; 5-methyl-dC at positions 7, 19, 31; recombinant protein; protein details: C-terminal MBP-6xHis,His-SUMO; label: 5' 6-FAM; single-stranded DNA

TATGACCTGCGGTATGACCTGCGGTATGACCTGCGG [p1-m5C (ss)]
binding result: binds

Construct, isoform or probe ends are uncertain for at least one entry. At least one verdict rests on a figure or table, not on a statement of the authors.
